# Data published in publication PMC10656529.
# Biological target: T1, H-NS (UniProt P0ACF8)
# T1 sequence (looked up, limits assumed): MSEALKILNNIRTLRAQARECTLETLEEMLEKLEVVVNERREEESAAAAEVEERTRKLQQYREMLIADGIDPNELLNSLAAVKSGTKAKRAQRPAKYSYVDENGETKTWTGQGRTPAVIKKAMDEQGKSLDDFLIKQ
# Assay: EMSA
# Conditions: 200 nM DNA after mixing, serial H-NS dilutions; H-NS in 130 mM NaCl, 20 mM Tris, 10% glycerol, 8 mM β-mercaptoethanol, 3 mM benzamidine, pH 7.2, mixed 1:1 with 400 nM DNA in water; 20 min at 25 °C then 10 min at 4 °C; recombinant protein
sequence,measurement,value
"AGGGGTTGCCTCAGATTCTCAGTATGTTAGGGTAGAAGCAAGTGACGCTTTCCATTGGGTAGTACATCGACATAGACAAATAAAGGAATCTTTCTATTGCATGGCAATCAAACTCGAGATCAAGAACCTCTACAAGATCTTCGGCGAGCATCCACAGCGAGCGTTCAAGTACATCGAGCAGGGGCTCTCGAAGGAGCAGATCCTGGAGAAGACGGGG (double strand) [DREmut (DRE of NT644, pProU_GC)]",binding result,binds more weakly

# For at least one entry, the source does not settle the construct or the ends of the probe. A weaker result is weaker than the reference pair of the same experiment. Where a protein sequence is shown, tags need not be part of it.
